These are yes or no findings as the source states them, for the method shown. Binding seen in cells or lysates may run through a third protein. Some entries that bind do so weakly or less than the wild type. Tags and fused reporters may be left off the sequences shown.

Sequences of proteins named here, by UniProt entry; tags and fusion partners are left off.
UniProt P25490: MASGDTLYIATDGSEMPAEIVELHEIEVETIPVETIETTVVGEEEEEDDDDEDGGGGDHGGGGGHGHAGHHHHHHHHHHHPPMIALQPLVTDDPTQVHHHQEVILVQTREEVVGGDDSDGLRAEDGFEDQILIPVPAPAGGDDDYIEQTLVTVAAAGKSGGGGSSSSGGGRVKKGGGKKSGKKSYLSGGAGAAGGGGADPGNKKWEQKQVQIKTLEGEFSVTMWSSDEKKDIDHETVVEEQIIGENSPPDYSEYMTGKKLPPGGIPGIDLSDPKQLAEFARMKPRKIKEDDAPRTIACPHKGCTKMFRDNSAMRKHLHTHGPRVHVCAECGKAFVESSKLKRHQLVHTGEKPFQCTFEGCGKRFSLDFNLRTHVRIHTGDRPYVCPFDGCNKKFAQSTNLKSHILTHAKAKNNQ

The experiment deals with T1, N-myc and STAT interactor (NMI) (human (endogenous in human breast cancer cells)) (UniProt Q13287).
T1 sequence: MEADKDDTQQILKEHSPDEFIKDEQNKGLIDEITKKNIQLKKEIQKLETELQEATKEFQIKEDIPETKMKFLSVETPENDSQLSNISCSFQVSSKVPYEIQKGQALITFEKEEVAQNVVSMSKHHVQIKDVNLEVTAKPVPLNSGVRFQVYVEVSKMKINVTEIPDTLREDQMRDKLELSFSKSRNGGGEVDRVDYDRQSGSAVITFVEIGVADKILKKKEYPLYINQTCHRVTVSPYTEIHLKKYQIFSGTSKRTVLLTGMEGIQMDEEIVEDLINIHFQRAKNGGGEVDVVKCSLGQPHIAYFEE
Kind of experiment: co-IP; nuclear extracts of human breast cancer cells; antibody against NMI or YY1 (mouse IgG as control) overnight at 4 °C, protein A/G plus-agarose beads 2 h, washed with PBS, western blot.

For YY1 (from UniProt P25490 1-414), the binding entry is “binds”.

Values taken from publication PMC5520720.
